Data from patent US20170183660.

Sequences of proteins named here, by UniProt entry; tags and fusion partners are left off. A change or cut given only in a name is not applied to a line headed by its entry.
UniProt P43357: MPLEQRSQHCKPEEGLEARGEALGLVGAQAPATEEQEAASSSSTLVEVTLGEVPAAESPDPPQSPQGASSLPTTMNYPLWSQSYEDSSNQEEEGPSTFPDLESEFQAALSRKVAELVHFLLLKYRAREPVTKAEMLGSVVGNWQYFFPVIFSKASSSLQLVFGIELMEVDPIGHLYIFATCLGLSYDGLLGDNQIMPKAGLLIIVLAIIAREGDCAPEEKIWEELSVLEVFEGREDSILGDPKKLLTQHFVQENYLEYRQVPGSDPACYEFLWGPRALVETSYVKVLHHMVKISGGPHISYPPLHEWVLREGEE

Tests used:
[1] = target: MAGE-A3 111-125 presented by MHC on cancer cells (Homo sapiens) (UniProt P43357); experiment: binding assay; details: confocal microscopy, protein on the cell surface, label: Cy3, single-stranded DNA
[2] = target: MAGE-A3 111-125 presented by MHC on cancer cells (Homo sapiens) (UniProt P43357); experiment: flow cytometry; details: 400 nM; MCF-7, DLD-1, HepG2, A549, SK-MEL-28, Cal-27, AsPC-1 all positive; confocal also positive, seven normal lines background only (FIG. 3); protein on the cell surface; label: Cy3; single-stranded DNA; variant of Ap52

ATCATTCGGATGTGTG [Cy3-Ap16-control]
binding result ([1]; SK-MEL-28, background only, variant of Ap16-control): no binding

AGCACTCAATATTCCC [Cy3-Ap16]
binding result ([1]; SK-MEL-28, MCF-7, Cal-27 positive, HEM-a, MCF-10A, OMF negative, variant of Ap16): binds

ATCCAGAGTGACGCAGCAAGCACTCAATATTCCCTGGACACGGTGGCTTAGT [Cy3-Ap52]
binding result [2]: binds

Where cells or extracts were used, other partners may take part. For part of these data: No signal at the amounts used counts as a negative.
